Measurements reported in paper PMC5510181.
Results are given in words; binding and its absence hold for the method and conditions named. In cells and extracts the contact can be indirect. For some of these results: Sequences can lack the tags named with a protein. Each block holds one binder with its values, some of them ahead of it.

How the values were obtained:
[1] = target: T1, SKAP1 (src kinase-associated phosphoprotein 1), endogenous in murine DC27.10 T cells (mouse (endogenous in DC27.10)) (UniProt Q3UUV5); experiment: co-IP; membrane fraction of DC27.10 mouse T cells ligated with anti-CD3 and/or anti-LFA-1 (5 min; titration of anti-LFA-1) or plate-bound ICAM1-Fc (2 μg/ml); precipitation with anti-SKAP1 or anti-LAT, protein G-Sepharose, 4 °C, blotting
T1 sequence: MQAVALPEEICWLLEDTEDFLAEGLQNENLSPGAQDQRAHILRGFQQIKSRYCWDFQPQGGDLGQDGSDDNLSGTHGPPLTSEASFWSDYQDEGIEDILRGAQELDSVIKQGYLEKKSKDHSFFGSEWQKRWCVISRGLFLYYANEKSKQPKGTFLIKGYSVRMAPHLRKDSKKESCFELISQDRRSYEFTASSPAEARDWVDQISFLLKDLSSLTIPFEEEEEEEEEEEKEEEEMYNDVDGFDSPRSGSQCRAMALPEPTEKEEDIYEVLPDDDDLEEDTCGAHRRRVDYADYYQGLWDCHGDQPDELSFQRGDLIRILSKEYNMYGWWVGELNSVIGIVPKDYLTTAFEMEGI

[2] = target: T2, SKAP1 (src kinase-associated phosphoprotein 1), endogenous in human T cells (human (endogenous in Jurkat and in human primary T cells)) (UniProt Q86WV1); experiment: co-IP; membrane fraction of human peripheral primary T cells ligated with plate-bound ICAM1-Fc (2 μg/ml) or ICAM1-Fc plus soluble anti-CD3 (1 μg/ml) for 5-20 min; anti-SKAP1 precipitation, blotting
T2 sequence: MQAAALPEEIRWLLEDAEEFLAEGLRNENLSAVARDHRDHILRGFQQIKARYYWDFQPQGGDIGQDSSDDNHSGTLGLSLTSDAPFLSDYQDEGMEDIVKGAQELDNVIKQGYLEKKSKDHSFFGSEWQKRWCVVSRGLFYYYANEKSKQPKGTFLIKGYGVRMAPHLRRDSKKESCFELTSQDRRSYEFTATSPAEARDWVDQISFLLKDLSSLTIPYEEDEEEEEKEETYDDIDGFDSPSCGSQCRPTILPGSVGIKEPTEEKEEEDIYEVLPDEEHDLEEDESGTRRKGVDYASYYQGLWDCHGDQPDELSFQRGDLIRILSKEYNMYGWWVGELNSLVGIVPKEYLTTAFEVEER

[3] = target: T2, SKAP1 (src kinase-associated phosphoprotein 1), endogenous in human T cells (human (endogenous in Jurkat and in human primary T cells)); experiment: co-IP; detergent lysates of Jurkat T cells ligated with anti-CD3 and/or anti-LFA-1 (5-10 min; some lysates first serially depleted with anti-SKAP1, anti-SLP-76 or anti-PLCγ1; with or without the inhibitor PF573228); precipitation with anti-SKAP1, anti-SLP-76, anti-PLCγ1 or anti-LFA-1, blotting
Flag-tagged SKAP1 = target: T3, Flag-tagged SKAP1 (UniProt Q86WV1); experiment: co-IP; 293T cells co-transfected with Flag-SKAP1 and the partner; precipitation with anti-Flag (legend; anti-SKAP1 in the text), blotting with anti-GFP or anti-Flag
T3 sequence: T2 sequence

GST-SKAP1 wild-type = target: T4, GST-SKAP1 wild-type (UniProt Q86WV1); experiment: pull-down; GST fusion proteins from E. coli incubated with lysates of Jurkat cells ligated with anti-LFA-1 for 5 min; blotting with anti-PLCγ1, anti-LAT, anti-GRB-2, anti-ADAP, anti-SLP-76 and anti-GST; only the target purified
T4 sequence: T2 sequence

binding [1]: no binding
B1: SLP-76 (SH2 domain containing leukocyte protein of 76kDa), endogenous in murine DC27.10 T cells (protein, UniProt Q60787 1-533)
chain: MALKNVPFRSEVLAWNSDNLADYFRKLNYRDCEKAVKKYHIDGARFLNLTENDIQKFPKLRMPLLSKLSQDINKNEERRSIFTRKPQIPRFLEETESHEEDDGGWSSFEDDYESPNDDDPDGEDDGDYESPNEEEQALVDDAADYEPPPSNNEEALQSSILPPNSFHNTNSMYIDRPPTGKVSQQPPVPPLRPKPALPPLPTGRNHSPLSPPHPNHEEPSRSGNNKTAKLPAPSIDRSTKPPLDRSLAPLDREPFILGKKPPFSDKPSAPLGREHLPKIQKPPLPPAMDRHERNERLGPVTTRKPPVPRHGRGPDRRENDEDDVHQRPLPQPSLPSMSSNTFPSRSVQPSSKNTFPLAHMPGAFSESNIGFQQSASLPPYFSQGPGNRPPLRSEGRNLPLPVPNRPQPPSPGEEETPLDEEWYVSYITRPEAEAALRKINQDGTFLVRDSSKKTANNPYVLMVLYKDKVYNIQIRYQEESQVYLLGTGLRGKEDFLSVSDIIDYFRKMPLLLIDGKNRGSRYQCTLTHAAGCL

binding [2]: no binding
binding [3]: no binding
B2: GADS (GRB2-related adaptor downstream of Shc), endogenous in human T cells (protein, UniProt O75791 1-330)
chain: MEAVAKFDFTASGEDELSFHTGDVLKILSNQEEWFKAELGSQEGYVPKNFIDIQFPKWFHEGLSRHQAENLLMGKEVGFFIIRASQSSPGDFSISVRHEDDVQHFKVMRDNKGNYFLWTEKFPSLNKLVDYYRTNSISRQKQIFLRDRTREDQGHRGNSLDRRSQGGPHLSGAVGEEIRPSMNRKLSDHPPTLPLQQHQHQPQPPQYAPAPQQLQQPPQQRYLQHHHFHQERRGGSLDINDGHCGTGLGSEMNAALMHRRHTDPVQLQAAGRVRWARALYDFEALEDDELGFHSGEVVEVLDSSNPSWWTGRLHNKLGLFPANYVAPMTR

binding (Flag-tagged SKAP1): no binding
B3: GADS tested with Flag-tagged SKAP1 (Supplementary Fig. 1a) (protein, UniProt O75791 1-330)
chain: B2 chain

binding [1]: no binding
B4: GADS (GRB2-related adaptor downstream of Shc), endogenous in murine DC27.10 T cells (protein, UniProt O89100 1-322)
chain: MEATAKFDFMASGEDELSFRTGDILKILSNQEEWLKAELGSQEGYVPKNFIDIEFPEWFHEGLSRHQAENLLMGKDIGFFIIRASQSSPGDFSISVRHEDDVQHFKVMRDTKGNYFLWTEKFPSLNKLVDYYRTTSISKQKQVFLRDGTQDQGHRGNSLDRRSQGGPHPSGTVGEEIRPSVNRKLSDHLPLGPQQFHPHQQPSPQFTPGPQPPQQQRYLQHFHQDRRGGSLDINDGHCGLGSEVNATLMHRRHTDPVQLQAAGRVRWARALYDFEALEEDELGFRSGEVVEVLDSSNPSWWTGRLHNKLGLFPANYVAPMMR

binding (Flag-tagged SKAP1): no binding
B5: PLCγ1 tested with Flag-tagged SKAP1 (Supplementary Fig. 1a) (enzyme, UniProt P19174 1-1290)
chain: MAGAASPCANGCGPGAPSDAEVLHLCRSLEVGTVMTLFYSKKSQRPERKTFQVKLETRQITWSRGADKIEGAIDIREIKEIRPGKTSRDFDRYQEDPAFRPDQSHCFVILYGMEFRLKTLSLQATSEDEVNMWIKGLTWLMEDTLQAPTPLQIERWLRKQFYSVDRNREDRISAKDLKNMLSQVNYRVPNMRFLRERLTDLEQRSGDITYGQFAQLYRSLMYSAQKTMDLPFLEASTLRAGERPELCRVSLPEFQQFLLDYQGELWAVDRLQVQEFMLSFLRDPLREIEEPYFFLDEFVTFLFSKENSVWNSQLDAVCPDTMNNPLSHYWISSSHNTYLTGDQFSSESSLEAYARCLRMGCRCIELDCWDGPDGMPVIYHGHTLTTKIKFSDVLHTIKEHAFVASEYPVILSIEDHCSIAQQRNMAQYFKKVLGDTLLTKPVEISADGLPSPNQLKRKILIKHKKLAEGSAYEEVPTSMMYSENDISNSIKNGILYLEDPVNHEWYPHYFVLTSSKIYYSEETSSDQGNEDEEEPKEVSSSTELHSNEKWFHGKLGAGRDGRHIAERLLTEYCIETGAPDGSFLVRESETFVGDYTLSFWRNGKVQHCRIHSRQDAGTPKFFLTDNLVFDSLYDLITHYQQVPLRCNEFEMRLSEPVPQTNAHESKEWYHASLTRAQAEHMLMRVPRDGAFLVRKRNEPNSYAISFRAEGKIKHCRVQQEGQTVMLGNSEFDSLVDLISYYEKHPLYRKMKLRYPINEEALEKIGTAEPDYGALYEGRNPGFYVEANPMPTFKCAVKALFDYKAQREDELTFIKSAIIQNVEKQEGGWWRGDYGGKKQLWFPSNYVEEMVNPVALEPEREHLDENSPLGDLLRGVLDVPACQIAIRPEGKNNRLFVFSISMASVAHWSLDVAADSQEELQDWVKKIREVAQTADARLTEGKIMERRKKIALELSELVVYCRPVPFDEEKIGTERACYRDMSSFPETKAEKYVNKAKGKKFLQYNRLQLSRIYPKGQRLDSSNYDPLPMWICGSQLVALNFQTPDKPMQMNQALFMTGRHCGYVLQPSTMRDEAFDPFDKSSLRGLEPCAISIEVLGARHLPKNGRGIVCPFVEIEVAGAEYDSTKQKTEFVVDNGLNPVWPAKPFHFQISNPEFAFLRFVVYEEDMFSDQNFLAQATFPVKGLKTGYRAVPLKNNYSEDLELASLLIKIDIFPAKENGDLSPFSGTSLRERGSDASGQLFHGRAREGSFESRYQQPFEDFRISQEHLADHFDSRERRAPRRTRVNGDNRL

binding (GST-SKAP1 wild-type): no binding
B6: phospholipase Cγ1 (PLCγ1), endogenous in Jurkat T cells (enzyme, UniProt P19174 1-1290)
chain: B5 chain

binding [2]: no binding
binding (GST-SKAP1 wild-type): no binding
binding [3]: no binding
B7: SLP-76 (SH2 domain containing leukocyte protein of 76kDa), endogenous in human T cells (protein, UniProt Q13094 1-533)
chain: MALRNVPFRSEVLGWDPDSLADYFKKLNYKDCEKAVKKYHIDGARFLNLTENDIQKFPKLRVPILSKLSQEINKNEERRSIFTRKPQVPRFPEETESHEEDNGGWSSFEEDDYESPNDDQDGEDDGDYESPNEEEEAPVEDDADYEPPPSNDEEALQNSILPAKPFPNSNSMYIDRPPSGKTPQQPPVPPQRPMAALPPPPAGRNHSPLPPPQTNHEEPSRSRNHKTAKLPAPSIDRSTKPPLDRSLAPFDREPFTLGKKPPFSDKPSIPAGRSLGEHLPKIQKPPLPPTTERHERSSPLPGKKPPVPKHGWGPDRRENDEDDVHQRPLPQPALLPMSSNTFPSRSTKPSPMNPLPSSHMPGAFSESNSSFPQSASLPPYFSQGPSNRPPIRAEGRNFPLPLPNKPRPPSPAEEENSLNEEWYVSYITRPEAEAALRKINQDGTFLVRDSSKKTTTNPYVLMVLYKDKVYNIQIRYQKESQVYLLGTGLRGKEDFLSVSDIIDYFRKMPLLLIDGKNRGSRYQCTLTHAAGYP
